The values below come from patent publication US20230416942A1 (YALE UNIVERSITY, published 2023).

Sequences of proteins named here, by UniProt entry; tags and fusion partners are left off. A change or cut given only in a name is not applied to a line headed by its entry. Residues count along the entry.
UniProt Q9HBE4, residues 32-162: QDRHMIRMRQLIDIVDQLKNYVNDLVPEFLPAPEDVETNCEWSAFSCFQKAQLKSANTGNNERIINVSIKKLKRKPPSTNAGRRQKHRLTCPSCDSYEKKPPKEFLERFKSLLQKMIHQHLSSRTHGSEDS
UniProt P04234, residues 22-105: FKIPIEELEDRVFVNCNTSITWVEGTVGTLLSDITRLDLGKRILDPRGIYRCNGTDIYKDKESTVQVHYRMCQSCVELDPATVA
UniProt P35225, residues 35-146: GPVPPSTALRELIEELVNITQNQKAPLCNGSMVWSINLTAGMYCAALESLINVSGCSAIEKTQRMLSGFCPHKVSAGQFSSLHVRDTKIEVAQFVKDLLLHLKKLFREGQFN
UniProt P01375, residues 57-233: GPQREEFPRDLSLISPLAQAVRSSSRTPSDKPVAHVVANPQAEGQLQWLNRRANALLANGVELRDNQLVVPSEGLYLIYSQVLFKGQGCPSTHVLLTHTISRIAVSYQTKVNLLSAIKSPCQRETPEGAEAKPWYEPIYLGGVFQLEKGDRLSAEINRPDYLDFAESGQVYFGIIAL
UniProt P61769: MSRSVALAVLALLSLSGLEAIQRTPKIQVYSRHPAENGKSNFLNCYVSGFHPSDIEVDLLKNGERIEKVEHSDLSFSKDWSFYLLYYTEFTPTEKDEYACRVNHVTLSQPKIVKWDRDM
UniProt P05019, residues 49-118: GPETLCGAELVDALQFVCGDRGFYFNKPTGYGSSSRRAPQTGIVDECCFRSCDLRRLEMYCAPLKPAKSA
UniProt P18510, residues 26-177: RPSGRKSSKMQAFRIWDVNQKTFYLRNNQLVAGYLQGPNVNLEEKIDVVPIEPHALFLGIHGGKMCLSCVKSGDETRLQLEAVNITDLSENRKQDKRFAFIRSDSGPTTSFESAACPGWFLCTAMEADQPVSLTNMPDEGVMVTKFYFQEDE

For test [1], the target named is T1, IL21 (human, UniProt Q9HBE4 32-162, limits assumed).
T1 construct: Recombinant human protein in ELISA
In words: REAP, yeast-displayed human antigen library.

Test [2] addresses T2, CEACAM4 (human, UniProt O75871 36-155, limits assumed).
T2 construct: Recombinant human protein in ELISA
T2 sequence (looked up): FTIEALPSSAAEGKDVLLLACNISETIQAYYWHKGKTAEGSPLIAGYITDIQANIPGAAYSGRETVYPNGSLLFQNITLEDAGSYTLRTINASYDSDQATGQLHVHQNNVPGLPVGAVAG
Put plainly: REAP, yeast-displayed human antigen library.

Test [3] deals with T3, TMEM149 (human) (UniProt Q9H665).
T3 sequence (looked up): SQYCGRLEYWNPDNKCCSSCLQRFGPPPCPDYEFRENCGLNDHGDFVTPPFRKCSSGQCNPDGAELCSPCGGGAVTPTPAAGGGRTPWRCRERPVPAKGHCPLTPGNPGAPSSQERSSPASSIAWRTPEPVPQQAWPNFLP
In words: REAP, yeast-displayed human antigen library.

The target of test [4] is T4, CD3D (human, UniProt P04234 22-105).
T4 construct: Recombinant human protein in ELISA
In words: REAP, yeast-displayed human antigen library.

Test [5] concerns the target T5, CCL16 (human, UniProt O15467 24-120).
T5 construct: Recombinant human protein in ELISA and BLI
T5 sequence (looked up): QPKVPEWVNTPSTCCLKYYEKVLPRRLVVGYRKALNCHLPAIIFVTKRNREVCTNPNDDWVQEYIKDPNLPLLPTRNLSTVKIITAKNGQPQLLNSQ
In words: REAP, yeast-displayed human antigen library.

Test [6] addresses T6, IL13 (human, UniProt P35225 35-146, limits assumed).
T6 construct: Recombinant human protein in ELISA
In words: REAP, yeast-displayed human antigen library.

In test [7] the target is TNF (yeast-displayed human antigen, REAP library) (human) (UniProt P01375). In words: REAP, nanobody-Fc on yeast-displayed human antigen library (REAP Binding to Targets).
The target of test [8] is B2M (human) (UniProt P61769). In words: BLI, HIS1K sensor, his-tagged antigen immobilised, nanobody-Fc applied. (In general: BLI is a label-free optical method that tracks binding on a fibre tip over time.)
Test [9] addresses B2M (human) (UniProt P61769). Put plainly: REAP, yeast-displayed human antigen library.
Test [10] deals with IGF1 (human) (UniProt P05019). In words: REAP, yeast-displayed human antigen library.
Test [11] has as its target T7, IL17A (human, UniProt Q16552 24-155).
T7 construct: Recombinant human protein in ELISA and BLI
T7 sequence (looked up): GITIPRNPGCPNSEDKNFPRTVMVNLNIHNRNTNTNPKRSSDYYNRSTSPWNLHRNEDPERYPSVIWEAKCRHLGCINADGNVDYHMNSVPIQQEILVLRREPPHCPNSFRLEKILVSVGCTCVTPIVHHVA
Put plainly: REAP, yeast-displayed human antigen library.

For test [12], the target named is T8, IL10RA (human, UniProt Q13651 22-235).
T8 construct: Recombinant human protein in ELISA
T8 sequence (looked up): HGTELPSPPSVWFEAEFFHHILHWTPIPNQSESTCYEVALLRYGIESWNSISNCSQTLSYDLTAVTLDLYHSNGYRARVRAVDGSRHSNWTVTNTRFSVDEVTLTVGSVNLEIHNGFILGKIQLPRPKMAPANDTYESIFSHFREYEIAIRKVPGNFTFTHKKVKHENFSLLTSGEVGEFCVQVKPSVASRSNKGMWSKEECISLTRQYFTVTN
Put plainly: REAP, yeast-displayed human antigen library.

The target of test [13] is T9, IL1RN (human, UniProt P18510 26-177).
T9 construct: Recombinant human protein in ELISA and BLI
Put plainly: REAP, yeast-displayed human antigen library.

These are yes or no findings as the source states them, for the method shown. Some results given as binding are weak or reduced against the parent protein; the word gives no strength.

B1: IL21_Nb2.28 (Fc fusion)
chain: QVQLQESGGGLVQAGGSLRLSCAASGSISNTYVMGWYRQAPGKERELVAAIGHGGTTYYADSVKGRFTISRDNAKNTVYLQMNSLKPEDTAVYYCAVYLSRVRKFYYWGQGTQVTVSS
notes: Nanobody expressed and tested as Fc fusion (human IgG1); not shown: human IgG1 Fc (vector pCER243)
Regarding B1, the binding entry in test [1] was “binds”.

B2: CEACAM4_Nb41 (Fc fusion)
chain: QVQLQESGGGLVQAGGSLRLSCAASGTISRSSIMGWYRQAPGKEREFVAGISYGSTTYYADSVKGRFTISRDNAKNTVYLQMNSLKPEDTAVYYCAVRDLYVWDHAYWGQGTQVTVSS
notes: as for B1
B2: the binding result in [2] was “binds”.

B3: TMEM149_Nb3.446 (Fc fusion, not shown: a dimerising Fc or GST)
chain: QVQLQESGGGLVQAGGSLRLSCAASGNISYYAEMGWYRQAPGKEREFVAAIAWGANTYYADSVKGRFTISRDNAKNTVYLQMNSLKPEDTAVYYCAVYYDIPRNHFYWGQGTQVTVSS
As to B3, the binding result in test [3] is reported as “binds”.

B4: CD3D_Nb2.34 (Fc fusion)
chain: QVQLQESGGGLVQAGGSLRLSCAASGTISTLDYMGWYRQAPGKEREFVAAINYGSNTYYADSVKGRFTISRDNAKNTVYLQMNSLKPEDTAVYYCAAADVTRPAYDYWGQGTQVTVSS
notes: as for B1
For B4, in test [4], the binding result is “binds”.

B5: CCL16_Nb2.1 (Fc fusion)
chain: QVQLQESGGGLVQAGGSLRLSCAASGYISSYWDMGWYRQAPGKERELVAAIAPGTITYYADSVKGRFTISRDNAKNTVYLQMNSLKPEDTAVYYCAASEFDNEAHDYWGQGTQVTVSS
notes: as for B1
For the molecule B5, the binding result in test [5] was “binds”.

B6: IL13_Nb2.42 (Fc fusion)
chain: QVQLQESGGGLVQAGGSLRLSCAASGTISATDFMGWYRQAPGKERELVAAINHGGSTYYADSVKGRFTISRDNAKNTVYLQMNSLKPEDTAVYYCAAARDDYPWHDYWGQGTQVTVSS
notes: as for B1
B6: in test [6], the binding entry is on record as “binds”.

B7: TNF_Nb109 (Fc fusion)
chain: QVQLQESGGGLVQAGGSLRLSCAASGYISGEWFMGWYRQAPGKERELVAGISRGSTTYYADSVKGRFTISRDNAKNTVYLQMNSLKPEDTAVYYCAVYLTHKGYDGADGVVHHRYWGQGTQVTVSS
notes: Nanobody expressed as an Fc fusion protein (fused with human IgG1) in Expi293 cells; not shown: human IgG1 Fc; nanobodies expressed as Fc fusion from vector pCER243
In the case of B7, in test [7], the binding entry is on record as “binds”.

B8: B2M_Nb3.750 (Fc fusion, not shown: a dimerising Fc or GST)
chain: QVQLQESGGGLVQAGGSLRLSCAASGSISQYDEMGWYRQAPGKERELVAGINAGSSTYYADSVKGRFTISRDNAKNTVYLQMNSLKPEDTAVYYCAASSHTDADYAYWGQGTQVTVSS
With B8, the binding result in test [8] and in test [9] was “binds” in each case.

B9: IL21_Nb2.30 (Fc fusion)
chain: QVQLQESGGGLVQAGGSLRLSCAASGTIFRETVMGWYRQAPGKERELVAAIDDGTSTYYADSVKGRFTISRDNAKNTVYLQMNSLKPEDTAVYYCAARASYTYGRLRFRYWGQGTQVTVSS
notes: as for B1
Take B9: in test [1], the binding entry was “binds”.

B10: IL21 Nb2.29 (Fc fusion)
chain: QVQLQESGGGLVQAGGSLRLSCAASGNISWGTIMGWYRQAPGKEREFVAAISHGANTNYADSVKGRFTISRDNAKNTVYLQMNSLKPEDTAVYYCAAQSRAGSTRPRYHKYWGQGTQVTVSS
notes: as for B1
B10: the binding result in [1] is on record as “binds”.

B11: IGF1_Nb3.33 (Fc fusion, not shown: a dimerising Fc or GST)
chain: QVQLQESGGGLVQAGGSLRLSCAASGNIFDLPYMGWYRQAPGKERELVATISIGSTTNYADSVKGRFTISRDNAKNTVYLQMNSLKPEDTAVYYCAVVHRSTGGYKYWGQGTQVTVSS
Take B11: the binding entry in test [10] is given as “binds”.

B12: CCL16_Nb2.5 (Fc fusion)
chain: QVQLQESGGGLVQAGGSLRLSCAASGYIFGVYDMGWYRQAPGKERELVATISAGGTTNYADSVKGRFTISRDNAKNTVYLQMNSLKPEDTAVYYCAAYTDYSPYDGAALVYWGQGTQVTVSS
notes: as for B1
With B12, the binding result in test [5] is “binds”.

B13: CEACAM4_Nb40 (Fc fusion)
chain: QVQLQESGGGLVQAGGSLRLSCAASGTISPGYGMGWYRQAPGKEREFVATIAFGSSTYYADSVKGRFTISRDNAKNTVYLQMNSLKPEDTAVYYCAVAIYIPYFFRYWGQGTQVTVSS
notes: as for B1
On to B13, for which the binding entry in [2] was “binds”.

B14: IL17A_Nb2.92 (Fc fusion)
chain: QVQLQESGGGLVQAGGSLRLSCAASGTISQGDYMGWYRQAPGKEREFVASIAIGTITYYADSVKGRFTISRDNAKNTVYLQMNSLKPEDTAVYYCAVSVQFSYDFYYWGQGTQVTVSS
notes: as for B1
With B14, the binding entry in test [11] is listed as “binds”.

B15: IL13_Nb2.41 (Fc fusion)
chain: QVQLQESGGGLVQAGGSLRLSCAASGTIFVDEFMGWYRQAPGKEREFVASINDGGSTYYADSVKGRFTISRDNAKNTVYLQMNSLKPEDTAVYYCAVFEPSPDGDPFGDRAWFWYWGQGTQVTVSS
notes: as for B1
For the molecule B15, in [6], the binding entry is “binds”.

B16: CD3D_Nb2.35 (Fc fusion)
chain: QVQLQESGGGLVQAGGSLRLSCAASGTIFAYWYMGWYRQAPGKEREFVAAIGDGSSTYYADSVKGRFTISRDNAKNTVYLQMNSLKPEDTAVYYCAAEAPGYGHTYWGQGTQVTVSS
notes: as for B1
As for B16, the binding entry in test [4] is reported as “binds”.

B17: IL17A_Nb2.90 (Fc fusion)
chain: QVQLQESGGGLVQAGGSLRLSCAASGYISLRFYMGWYRQAPGKEREFVATIDDGSSTYYADSVKGRFTISRDNAKNTVYLQMNSLKPEDTAVYYCAVTAQTYYDHVYWGQGTQVTVSS
notes: as for B1
In the case of B17, in [11], the binding entry is “binds”.

B18: IL10RA_Nb72 (Fc fusion)
chain: QVQLQESGGGLVQAGGSLRLSCAASGTISSEHAMGWYRQAPGKERELVAGITYGSITNYADSVKGRFTISRDNAKNTVYLQMNSLKPEDTAVYYCAVYYYYRATIYHALGYWGQGTQVTVSS
notes: as for B1
For the molecule B18, the binding result in test [12] is listed as “binds”.

B19: TNF_Nb105 (Fc fusion)
chain: QVQLQESGGGLVQAGGSLRLSCAASGTISVTYFMGWYRQAPGKERELVAGIGTGANTYYADSVKGRFTISRDNAKNTVYLQMNSLKPEDTAVYYCAAYIGAPVYGDGQSRNKAKVYDYWGQGTQVTVSS
notes: as for B7
Consider B19, for which, in test [7], the binding entry was “binds”.

B20: CEACAM4_Nb36 (Fc fusion)
chain: QVQLQESGGGLVQAGGSLRLSCAASGNIFLGPYMGWYRQAPGKEREFVASINYGASTNYADSVKGRFTISRDNAKNTVYLQMNSLKPEDTAVYYCAAGYYSNDYYYYEYSYWGQGTQVTVSS
notes: as for B1
With B20, the binding result in test [2] was “binds”.

B21: IL1RN_Nb77 (Fc fusion)
chain: QVQLQESGGGLVQAGGSLRLSCAASGTIFTWLVMGWYRQAPGKERELVASIDPGTNTYYADSVKGRFTISRDNAKNTVYLQMNSLKPEDTAVYYCAARYVAGYTVGAYHYYWGQGTQVTVSS
notes: as for B1
As to B21, in test [13], the binding entry is on record as “binds”.

B22: TMEM149_Nb3.530 (Fc fusion, not shown: a dimerising Fc or GST)
chain: QVQLQESGGGLVQAGGSLRLSCAASGSIFLLDRMGWYRQAPGKEREFVAGIGYGGSTYYADSVKGRFTISRDNAKNTVYLQMNSLKPEDTAVYYCAAQTWDEDGYWSDYDYWGQGTQVTVSS
Regarding B22, the binding result in [3] is recorded as “binds”.

B23: CD3D_Nb2.36 (Fc fusion)
chain: QVQLQESGGGLVQAGGSLRLSCAASGSISAYWAMGWYRQAPGKEREFVAAINFGANTYYADSVKGRFTISRDNAKNTVYLQMNSLKPEDTAVYYCAAERDGDYHDYWGQGTQVTVSS
notes: as for B1
Regarding B23, the binding entry in test [4] is “binds”.

B24: IL1RN_Nb75 (Fc fusion)
chain: QVQLQESGGGLVQAGGSLRLSCAASGNIFRYDNMGWYRQAPGKEREFVATITYGSNTYYADSVKGRFTISRDNAKNTVYLQMNSLKPEDTAVYYCAAYFPYRSYDNSADTSSHSYWGQGTQVTVSS
notes: as for B1
Take B24: in test [13], the binding entry was “binds”.
